PubChem BioAssay AID652272, Drosophila RNAi Screening Center | 2013
The screen tested about 21,000 reagents; this is an unselected part of those that have a named target and a result. Over the whole deposit, 503 (2.4%) are marked active. 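Raw plate light values, not normalised; calls rest on replicate z-scores that were not deposited; hits include reporter decreases as well as increases.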 A plus sign joins genes that one reagent is predicted to hit. The record does not give: the amount of reagent, the time to read-out.

Assay: 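Finding fly genes that regulate Hedgehog signal transduction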 (primary screen)
Cells: Drosophila clone 8 (Cl8) cells
Knock-down reagent: long dsRNA against Drosophila genes
Detection: 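Plate reader light from a firefly reporter under a ptc promoter fragment that responds to Hedgehog, with Renilla light as transfection reference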
Reading the numbers: firefly Hh reporter signal: higher = more ptc reporter light; Renilla reference signal: higher = more Renilla control light
Rule for the call: 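Called a hit if the two-replicate mean z-score lies below -2 or above +3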
Calls: active = hit: reporter lowered or raised; inactive = not a hit

gene knocked down	PubChem SID	firefly Hh reporter signal, replicate 1	firefly Hh reporter signal, replicate 2	firefly Hh reporter signal, replicate 3	Renilla reference signal, replicate 1	Renilla reference signal, replicate 2	outcome
daw (dawdle)	SID104180271	78641	73670		3591	3101	inactive
Coq2 (Coenzyme Q biosynthesis protein 2)	SID104196308	1.50e5	2.29e5		6295	6285	inactive
CG12877	SID104194357	1.05e5	1.15e5		2816	3786	inactive
CG2652	SID104198293	1.43e5	8.54e5	1.43e5	3353	50816	inactive
CG7653	SID104181678	83761	65478		2504	5992	inactive
Ypel (Yippee-like)	SID104197788	85052	60616		1317	1386	inactive
lili (lilipod)	SID104193935	1.49e5	69476		5410	2851	inactive
CG15199	SID104199438	54357	2.09e5		1299	7604	inactive
Irp-1A (Iron regulatory protein 1A)	SID104196511	1.62e5	8.89e5	1.31e5	6552	50021	inactive
CG8303	SID104186932	75346	55163		1882	4219	inactive
ArfGAP3 (ADP-ribosylation factor GTPase activating protein 3)	SID104191586	1.27e5	1.14e5		5040	4692	inactive
Cpr5C (Cuticular protein 5C)	SID104198132	1.42e5	6.72e5	3.34e5	5309	5234	inactive
CG18746	SID104195175	80373	1.35e5		3371	3708	inactive
CG9896	SID104183754	1.45e5	2.38e5		4112	10998	inactive
CG9896	SID104184386	85434	70454		1926	7265	inactive
Der-1 (Derlin-1)	SID104180093	1.44e5	88738		5328	3265	inactive
Xpd (Xeroderma pigmentosum D)	SID104184458	84711	71576		3043	2667	inactive
Daao2 (D-amino acid oxidase 2)	SID104181927	94582	1.18e5		3877	4890	inactive
mus304 (mutagen-sensitive 304)	SID104191164	1.15e5			1480	5383	inactive
CG11060	SID104185821	86548	86163		3460	3577	inactive
CG33143	SID104183943	1.03e5	92912		2134	7826	inactive
CG33143	SID104184246	82359	52817		1456	4887	inactive
WASp	SID104194824	1.22e5	1.51e5		3329	4045	inactive
Skadu	SID104181282	1.18e5	1.81e5		3538	7993	inactive
Mic26-27 (MICOS subunit 26/27)	SID104195705	1.77e5	93074		6765	3883	inactive
CG15561	SID104194892	1.78e5	1.94e5		5658	6028	inactive
Oct-TyrR (Octopamine-Tyramine receptor)	SID104191675	81065	89702		2786	2230	inactive
CG34039	SID104189110	2.05e5			5175		inactive
DZIP1	SID104194412	4.80e5	1.01e5		27849	2853	inactive
Wdr33 (WD repeat domain 33)	SID104191954	1.12e5	67936		5797	3824	inactive
Snx17 (Sorting nexin 17)	SID104182676	84707	71905		5010	3440	inactive
CG34005	SID104185492	1.05e5	1.92e5		3201	7872	inactive
rdog (red dog mine)	SID104194223	72999	89313		1696	2490	inactive
sisA	SID104200166	67693	1.36e5		1905	5697	inactive
mRpL45 (mitochondrial ribosomal protein L45)	SID104195938	5.24e5	1.07e5		25968	3386	inactive
PXo (P[[i]]-sensitive XPR1 orthologue)	SID104189526	1.15e5	77716		5529	3659	inactive
CG12341	SID104185925	1.18e5	75879		2850	5260	inactive
jigr1 (jing interacting gene regulatory 1)	SID104193516	1873	2.84e5		609	6167	inactive
jigr1 (jing interacting gene regulatory 1)	SID104195025	6.74e5	1.56e5		34330	4004	inactive
CG9752	SID104184354	65331	42748		2605	1456	inactive
Awh (Arrowhead)	SID104187932	93697	61444		3308	3936	inactive
CG3919	SID104190181	1.13e5	1.13e5		4106	4532	inactive
Sk1 (Sphingosine kinase 1)	SID104199566	61036	1.19e5		2737	5848	inactive
AstA (Allatostatin A)	SID104194426	7.95e5	1.25e5		37943	2587	inactive
Vha68-3 (Vacuolar H[+] ATPase 68kD subunit 3)	SID104182601	1.50e5	56557		3764	5369	inactive
Vmat + CG13330	SID104186157	1.20e5	56016		4762	2243	inactive
CG10907	SID104189596	43192	45403	50770	4529	4099	inactive
CG4702	SID104195418	1.13e5	1.19e5		4572	4460	inactive
CG3556	SID104198101	1.35e5	1.42e5		2144	4211	inactive
Cpsf160 (Cleavage and polyadenylation specificity factor 160)	SID104185760	64147	60392		4025	2924	inactive
HP5 (Heterochromatin protein 5)	SID104199565	1.30e5	64912		3216	1851	inactive
Rnmt (RNA guanine-7 methyltransferase)	SID104183350	90961	60045		2294	4688	inactive
Hel25E (Helicase at 25E)	SID104183134	22916	21376		1868	2376	active
c(2)M (crossover suppressor on 2 of Manheim)	SID104181714	1.03e5	80157		3907	3201	inactive
CG10553	SID104194046	6.21e5	89129		41536	3126	inactive
Glut4EF (Glucose transporter 4 enhancer factor)	SID104194139	88267	61991		2860	2069	inactive
Glut4EF (Glucose transporter 4 enhancer factor)	SID104194304	1.25e5	1.78e5		3835	4624	inactive
Glut4EF (Glucose transporter 4 enhancer factor)	SID104194333	72106	1.31e5		1861	3195	inactive
Glut4EF (Glucose transporter 4 enhancer factor)	SID104194334	93235	1.32e5		2594	3392	inactive
Glut4EF (Glucose transporter 4 enhancer factor)	SID104194335	88256	1.21e5		2754	3113	inactive

Reagents above with an active call:
gene knocked down	PubChem SID	firefly Hh reporter signal, replicate 1	firefly Hh reporter signal, replicate 2	firefly Hh reporter signal, replicate 3	Renilla reference signal, replicate 1	Renilla reference signal, replicate 2	outcome
Hel25E (Helicase at 25E)	SID104183134	22916	21376		1868	2376	active
